# Results of single-concentration screens

From ChEMBL document CHEMBL3988442, “University of Dundee, Small-Polar-MMV Screening Library” (2021).

A: 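Growth of Mycobacterium tuberculosis over 4 days (cholesterol / DPPC medium with tyloxapol); the read-out is not stated. Concentration: 50 µM. Higher reads as more growth inhibition (inferred: compounds with an IC50 in retests scored well above the rest). Size under these conditions: about 69,000 compounds, about 370 of them at 50% or above in at least one test.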
B: 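Growth of Mycobacterium tuberculosis over 3 days (7H9 medium with glucose and tyloxapol); the read-out is not stated. Tested at 50 µM. Direction is inferred from retests: higher values go with more growth inhibition. Size under these conditions: about 69,000 compounds, about 760 of them at 50% or above in at least one test.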

Each number is a percent effect as filed.
How 0% and 100% were set is not recorded. Most values in the screen are low, and negative values occur.
This is an unselected part of the compounds tested.
Two or more numbers in one place are separate tests of the same structure; such repeats can differ widely.

| compound | A | B |
|---|---|---|
| `CN(C)CC1CSCCCN1C(=O)c1ccc(C(C)(C)C)cc1` (stereo not drawn) | 0.2062 | 5.388 |
| `CCc1nsc(NC2CCCn3nc(COC)nc32)n1` (stereo not drawn) | 15.11 | 21.35 |
| `Cc1ccc(CN2CC[C@@H](N3CCOCC3)[C@@H]2Cc2cccnc2)o1.O=C(O)C(F)(F)F.O=C(O)C(F)(F)F.O=C(O)C(F)(F)F` | 11.94 | -0.5475 and 5.777 |
| `O=C(CN1CCc2onc(-c3ccccc3F)c2C1)NC1CC1` | -23.6 | -79.81 |
| `CC1CCc2nn(CCNC(=O)Cc3ccccc3F)c(=O)cc2C1` (stereo not drawn) | -20.78 | 6.183 |
| `O=C(O)C(F)(F)F.O=C(O)C(F)(F)F.[H][C@]12CCN(c3ncccn3)[C@@]1([H])CC[C@H](COCc1ccccn1)O2` | 4.692 and -10.35 | -23.62 |
| `O=C(NCCc1ccncc1)c1cccc(S(=O)(=O)NC2CC2)c1` | 0.128 | 6.722 |
| `CCS(=O)(=O)N1Cc2nccn2CC(COc2cccnc2)C1` (stereo not drawn) | 20.46 | 11.31 |
| `NC(=O)C1CN(C(=O)NCC2(c3ccc(F)cc3)CCC2)CCO1` (stereo not drawn) | -0.653 | 12.44 and -1.99 |
| `O=C(CC1CCCCC1)NC1CCCc2nc(N3CCOCC3)ncc21` (stereo not drawn) | -2.423 | 9.271 |
| `O=C(O)C(F)(F)F.O=C1COC2(CCN(Cc3ccco3)CC2)CN1` | -35.76 | -24.94 |
| `CCCc1noc(CN(C)Cc2ccc3c(c2)OCO3)n1` | 45.08 | 19.72 |
| `Cc1nn(C)c2nc(N3CCNC(=O)C3Cc3ccccc3)sc12` (stereo not drawn) | -1.517 | -0.8241 |
| `[H][C@@]12COC[C@]1([H])[C@@H](OCC1CC1)CN2C(=O)c1ccnnc1` | -16.58 | -27.27 |
| `O=C(O)C(F)(F)F.O=C(O)C(F)(F)F.O=C(O)C(F)(F)F.O=C(O)C(F)(F)F.[H][C@@]12CN(Cc3ccncc3)C[C@]1([H])[C@H](OC)CCN2Cc1cccc(C)n1` | 18.01 | 5.177 |
| `Cc1ccc(N2CCC3(CN(Cc4cccs4)CCC3(F)F)C2)nn1.O=C(O)C(F)(F)F` (stereo not drawn) | 15.42 | 14.74 |
| `Cc1ccc(CN2CCc3c(COCC4CC4)nn(C)c3C2)s1.O=C(O)C(F)(F)F` | -15.39 | -7.165 |
| `CC(C)[C@@H]1CN(c2ncc(F)cn2)C[C@H]1NC(=O)N(C)C` | 6.719 | 15.73 |
| `O=C(CCC(=O)N1CCCC1c1ccsc1)N1CCOCC1` (stereo not drawn) | -6.005 | -4.923 |
| `Cc1cnn(CC2CN(c3ncnc4c3CCC4)CCO2)c1` (stereo not drawn) | 16.56 | 20.36 and 7.355 |
| `COc1ccc(C(C(=O)O)N2CCN(C3CCCCC3)CC2)cc1OC` (stereo not drawn) | -16.28 | -26.23 |
| `CCn1nc(C)c(CNC(=O)NCC(C)(O)c2ccccc2)c1C` (stereo not drawn) | -10.2 | -24.54 and -5 |
| `O=C(O)C(F)(F)F.O=C(O)C(F)(F)F.c1ccc(OCc2nnc3n2CCN(Cc2ccco2)C3)nc1` | 11.31 | 9.416 and -2.452 |
| `[H][C@]12CC[C@]([H])(CN(C(=O)c3ccc(F)c(Cl)c3)C1)N(Cc1ccccc1)C2` | 4.976 | 36.93 |
| `Cc1[nH]ncc1CCCNC(=O)N1CCN2CCCCC2C1` (stereo not drawn) | -32.14 | -12.08 |
| `COCCNC(=O)CN1CC=C(n2c(C)nc(=O)c3ccccc32)CC1` | 3.794 and 9.789 | 22.71 |
| `Cc1cc(C)c(CNC(=O)NCC(O)COc2ccccc2)c(=O)[nH]1` (stereo not drawn) | -25.26 | -16.19 |
| `CCN1CCN(Cc2c(-c3ccco3)[nH]c3ncccc23)CC1` | -16.25 | -5.344 |
| `CCCc1cc(NC2CCc3ncnn3C2)n2ncnc2n1` (stereo not drawn) | -2.431 | -5.253 and -28.52 |
| `COc1cc(-c2cc(C3CCOC3)c(C#N)c(N)n2)ccc1O` (stereo not drawn) | -33.13 | -18.25 |
| `CC(O)CN1CC2(CCC1=O)CCN(C(=O)c1cnn(C)c1)CC2` (stereo not drawn) | -12.04 | 14.06 |
| `Cc1ccc2c(n1)N(Cc1cccnc1)CCN(C1CCOCC1)C2.O=C(O)C(F)(F)F.O=C(O)C(F)(F)F.O=C(O)C(F)(F)F` | -24.75 | -25.58 |
| `c1ccc2[nH]c(C3CCN(Cc4nnc(C5CC5)o4)CC3)nc2c1` | -0.9304 | -0.5076 |
| `CCc1cc(NCCCC2CCOC2)n2nccc2n1` (stereo not drawn) | -9.158 | -3.818 |
| `COc1c(CNCc2ccc(N3CCCC3)nc2)c(C(C)C)nn1C` | -10.12 | 10 |
| `Cc1ccc(CN2CCC3(CCCN(C(=O)N(C)C)C3)C2)cc1` (stereo not drawn) | 2.246 | -2.158 and -5.682 |
| `O=C(c1ccc(Cl)o1)N1CCCC1c1nnc2n1CCCCC2` (stereo not drawn) | 4.56 | 28.05 |
| `CC(NC(=O)COC1CCCC1)c1nc(-c2ccccc2)c[nH]1` (stereo not drawn) | -0.6575 | 20.87 |
| `O=C(CNC(=O)c1ccccc1I)NCc1ccccc1F` | 9.845 | 5.409 |
| `[H][C@@]12CCC(=O)N(CC3CCNCC3)[C@]1([H])CCN(Cc1cnn(C)c1)C2` | 0.5663 and -15.79 | -2.353 |
| `CC(C)c1nccc(CN2CCCC(O)(CN3CCCC3)C2)n1` (stereo not drawn) | 18.51 | -17.7 |
| `COc1cccc(C(=O)N2CCc3ncnc(C)c3CC2)c1` | -13.47 | -42.61 |
| `CCC(=O)NCC(=O)NCC(C)(C)c1cccc(Br)c1` | 1.386 | 11.8 |
| `OCC1CCCN1c1cc(N2CCc3ccccc3C2)ncn1` (stereo not drawn) | 28.88 | -1.651 |
| `O=S(=O)(C1CC1)N1CCc2ncnc(-c3ccc(F)cc3)c2CC1` | -22.11 | -1.441 and 7.381 |
| `Cc1ccc(NC2CCN(C(=O)CCc3ccccc3)CC2)nn1` | 4.518 | 11.59 and 2.057 |
| `CCOc1c(Cl)cc(/C=C/c2ncc(C(=O)O)s2)cc1OC` | -6.917 | 2.159 |
| `CCOc1ccccc1CNC(=O)Cn1ccc2c(C)nn(C)c2c1=O` | 2.51 | 25.39 |
| `CC(C)CN1CCN(C(=O)c2[nH]nnc2Nc2ccccc2F)CC1` | 22.26 | 45.85 |
| `CSCc1ccc(CNC2CCCN(c3ccc(C)nn3)C2)o1` (stereo not drawn) | -21.8 | -13.78 |
| `CC(C)CN1C(=O)C2(CCCC2)NC12CCSCC2` | -2.096 | 2.744 |
| `Cc1noc(C)c1C(=O)N1CCC2(CC1)c1nc[nH]c1CCN2C` | -16.63 and -6.399 | 2.71 |
| `Cc1ccsc1C(=O)NC1CCS(=O)(=O)c2ccccc21` (stereo not drawn) | -12.93 | 2.44 |
| `CN1CCN(Cc2cccc(NCc3cc[nH]n3)c2)CC1` | -1.683 | 15.65 |
| `COc1cccc2c1N(C(=O)c1ccc(C)nc1)CCC2` | 0.4967 | -20.15 |
| `CCN(CC1CCOC1)C(=O)NCc1ccc(-n2cncn2)nc1` (stereo not drawn) | 3.395 | 28.57 |
| `CN(Cc1nccn1C)S(=O)(=O)N1CCCC1c1ccco1` (stereo not drawn) | -12.91 | -6.44 |
| `CC(C)CNC1(Cc2cc(-c3ccccc3)on2)COC1` | -19.16 | -0.8518 and -29.61 |
| `CN1CCC(Cc2noc(-c3cccc4c3OCC4)n2)CC1` | -1.846 | -7.484 |

7 of the entries, repeated:

| compound | A | B |
|---|---|---|
| `Cc1cnn(CC2CN(c3ncnc4c3CCC4)CCO2)c1` (stereo not drawn) | 16.56 | 20.36 and 7.355 |
| `[H][C@@]12CCC(=O)N(CC3CCNCC3)[C@]1([H])CCN(Cc1cnn(C)c1)C2` | 0.5663 and -15.79 | -2.353 |
| `O=C(CCC(=O)N1CCCC1c1ccsc1)N1CCOCC1` (stereo not drawn) | -6.005 | -4.923 |
| `CN1CCN(Cc2cccc(NCc3cc[nH]n3)c2)CC1` | -1.683 | 15.65 |
| `O=C(c1ccc(Cl)o1)N1CCCC1c1nnc2n1CCCCC2` (stereo not drawn) | 4.56 | 28.05 |
| `CN(Cc1nccn1C)S(=O)(=O)N1CCCC1c1ccco1` (stereo not drawn) | -12.91 | -6.44 |
| `CN1CCC(Cc2noc(-c3cccc4c3OCC4)n2)CC1` | -1.846 | -7.484 |